Measured values: patent US12497614B2, “Compositions and methods for editing beta-globin for treatment of hemaglobinopathies” (Vertex Pharmaceuticals Incorporated, priority 2020, dated 2025)
Some entries share one result that the patent states for a list of compounds.

Legend:
CD34+ HSPCs = experiment: Erythrocyte functionality: enucleation and cell-surface markers by flow cytometry (Example 5); format: cell-based, human; conditions: day 18 post-editing; T107 RNP+AAV.310 alone or combined with the inhibitor
Protocol: Following editing, cells were differentiated to erythrocytes.
The ability of edited cells to differentiate to functional erythrocytes was assessed by determining expression of erythrocyte-associated cell surface markers and enucleation using flow cytometry on day 12 and 18 post editing. Briefly, 4×10^5 cells were obtained, and half were stained for erythrocyte cell-surface markers and half were used for detection of enucleation. For staining cell-surface markers, the cells were incubated in PBS containing 1% human serum albumin (PBS-A) and an antibody cocktail of anti-CD233(BRIC6-Band3)-FITC, anti-CD71-PE, anti-CD235a(GlyA)-PE/Cy7, and anti-CD49d (α4)-VioBlue. For detection of enucleation, 2 drops of NucRed nuclear staining reagent was added to 1 mL PBS-A, and 100 μL was added to plated cells. Following incubation, both cell samples were labeled with Sytox Blue solution (1:1000 dilution in PBS-A) for live/dead analysis. Samples were then assessed by flow cytometry

[1] = test system: human HBB gene locus in CD34+ HSPCs; experiment: In vitro editing of HBB in CD34+ HSPCs with RNP and AAV donor template; HDR and INDELs by NGS (Example 1); format: cell-based; conditions: R02 RNP+AAV.323 with i53 (1 μg mRNA) or with i53 and Nu7441 (5 μM)
Protocol: Gene-editing of HBB was evaluated in CD34+ HSPCs. […] HSPCs were maintained in culture media containing IL-3 and were incubated at 37° C. under atmospheric conditions containing 5% carbon dioxide and 4% oxygen. […] To perform gene-editing, the cells were electroporated with RNP. Specifically, 1×10^6 cells were electroporated using the Maxcyte HSC-3 program with RNP containing 20 μg SpCas9 and 20 μg sgRNA (T107 or R02). AAV donor template was administered to cells prior to electroporation. Specifically, the cells were incubated with AAV (AAV.320 or AAV.323 respectively) at a dose of 10,000 MOI for one hour prior to electroporation.
Given efficiency of HDR repair is poor due to competition with other repair pathways (e.g., the NHEJ pathway), particularly in non-dividing or slowly dividing cells such as HSPCs, editing was also evaluated following treatment with molecules that inhibit targets in the NHEJ pathway, including 53BP1 and DNA-PK. […]
To evaluate HDR editing efficiency, genomic DNA was harvested from treated cells, and the frequency of the HBB allele encoding the expected gene edit (i.e., GAA encoding glutamate at position 6 downstream the HBB start codon (“E6”) for cells transduced with AAV.323 and silent mutations for cells transduced with AAV.320) was evaluated using a PCR amplification-based assay followed by next-generating sequencing (NGS). […]

Compound | cell population having enucleation (CD34+ HSPCs) [%] | HDR efficiency (donor-template-encoded gene-edit in HBB) [1]
CNC(=O)c1ccnc2c([C@H](C)CNc3cc(-c4cnc(C)nc4)ncn3)cccc12 [Compound 296] | > 30 | –
[2H]c1nc(C)nc([2H])c1-c1cc(NC[C@@H](C)c2cccc3c(C(=O)NC)ccnc23)ncn1 [Compound 984] | > 30 | –
i53: polypeptide inhibitor of 53BP1 (SEQ ID NO: 11), introduced as an mRNA-encoded protein (ORF SEQ ID NO: 10) | > 30 | greater than 40%
